Results are given in words; binding and its absence hold for the method and conditions named. Some binding calls cover weakened binding; strength is not graded here.
Assays:
[1] = target: mature TGFα (R&D Systems, 239-A) (human) (UniProt P01135); assay: ELISA on immobilized TGFα (FIG. 6b)
[2] = target: human Epiregulin (EREG) protein (human) (UniProt O14944); assay: ELISA on immobilized EREG (FIG. 6a)
[3] = target: mature TGFα (R&D Systems, 239-A) (human) (UniProt P01135); assay: ELISA on immobilized TGFα, COS-7 supernatant
[4] = target: human Epiregulin (EREG) protein (human) (UniProt O14944); assay: ELISA on immobilized EREG, COS-7 supernatant

The chains behind the UniProt entries cited, without tags or fusion partners. Where a name states a change or a piece, a line headed by the entry shows the natural chain unless it says otherwise.
UniProt P01135: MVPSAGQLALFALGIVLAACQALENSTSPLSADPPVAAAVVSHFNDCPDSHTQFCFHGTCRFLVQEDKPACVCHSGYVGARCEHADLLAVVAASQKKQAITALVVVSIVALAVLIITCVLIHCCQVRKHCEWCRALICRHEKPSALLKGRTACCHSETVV
UniProt O14944: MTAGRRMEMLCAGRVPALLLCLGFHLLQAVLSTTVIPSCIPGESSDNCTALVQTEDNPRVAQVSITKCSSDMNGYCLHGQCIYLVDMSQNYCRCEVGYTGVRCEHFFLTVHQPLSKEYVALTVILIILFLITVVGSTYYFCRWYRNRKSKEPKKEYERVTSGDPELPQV

Measured: binding

B1: EP19 recombinant chimeric antibody (mouse EP19 VH/VL with human IgG1 constant region) (antibody, V domains shown)
VH: EVQLQQSGPELEKPGASVKISCKASGYSFTGYNMNWVKQSNGKSLEWIGNIDPYYGAASYNQKFKGKATLTVDKSSSTAYMQLKSLTSEDSAVYYCARSQLPYWYFDVWGAGTTVTVSS
VL: DIVMTQSPSSLTVTAGEKVTMSCKSSQSLLNSGNQKNYLTWYQQKPGQPPKLLIYWASTRESGVPDRFTGSGSGTDFTLTISSVQAEDLAVYYCQNDYSYPYTFGGGTKLEIKR
binds: all assays above
